The values below come from publication doi:10.1101/2021.08.16.456495.

Amino acid sequences for entries named in this document (tags omitted). Residues count along the entry.
UniProt Q9NPF0, residues 53-171: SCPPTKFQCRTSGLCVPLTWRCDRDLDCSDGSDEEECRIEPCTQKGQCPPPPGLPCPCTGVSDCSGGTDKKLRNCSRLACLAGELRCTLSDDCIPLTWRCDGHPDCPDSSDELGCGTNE

For the assay, the target named is Transcobalamin receptor TCblR (CD320), crystallization construct, as in the TC:TCblR complex (human) (UniProt Q9NPF0). The assay can be described thus: crystal structure.

These are yes or no findings as the source states them, for the method shown. Some results given as binding are weak or reduced against the parent protein; the word gives no strength.

B1: Transcobalamin (TC), B12-bound, as in the TC:TCblR complex (protein, UniProt P20062 19-427)
chain: EMCEIPEMDSHLVEKLGQHLLPWMDRLSLEHLNPSIYVGLRLSSLQAGTKEDLYLHSLKLGYQQCLLGSAFSEDDGDCQGKPSMGQLALYLLALRANCEFVRGHKGDRLVSQLKWFLEDEKRAIGHDHKGHPHTSYYQYGLGILALCLHQKRVHDSVVDKLLYAVEPFHQGHHSVDTAAMAGLAFTCLKRSNFNPGRRQRITMAIRTVREEILKAQTPEGHFGNVYSTPLALQFLMTSPMRGAELGTACLKARVALLASLQDGAFQNALMISQLLPVLNHKTYIDLIFPDCLAPRVMLEPAAETIPQTQEIISVTLQVLSLLPPYRQSISVLAGSTVEDVLKKAHELGGFTYETQASLSGPYLTSVMGKAAGEREFWQLLRDPNTPLLQGIADYRPKDGETIELRLVSW
Consider B1, for which the binding result is “binds”.
